Substitutions are numbered along the chain they refer to. Results are given in words; binding and its absence hold for the method and conditions named. Some results given as binding are weak or reduced against the parent protein; the word gives no strength.
B1: chimeric SC16.15 (murine SC16.15 variable regions, human IgG1/kappa constant regions) (antibody, V domains shown)
VH: QVQLQQSGAELAKPGASVKMSCKASGYTFTRYWIHWIKQRPGQGLEWIGYINPTTVYTEFNQNFKDKATLTADKSSTTASMQLSSLTSEDSAVYYCARGGSNFFDYWGQGTTLTVSS
VL: DIQMTQSPASLAASVGETVAITCRASENIYYNLAWYQQKQGKSPQLLIYTANSLEDGVPSRFSGSGSGTQYSLKINSMQPEDSATYFCKQAYDVPPTFGGGTKLEIKR
B2: chimeric SC16.25 (murine SC16.25 variable regions, human IgG1/kappa constant regions) (antibody, V domains shown)
VH: QVTLKESGPGILQPSQTLSLTCSFSGFSLSTSGMGVGWIRQPSGEGLEWLTDIWWDDNKYYNPSLKSRLTISKDTSSNQVFLNITSVDTADTATYYCARRVNYYYDPYYAMDYWGQGTSVTVSS
VL: QIVLTQSPAIMSASPGEKVTMTCSASSSVSYMHWYQQKSGTSPKRWIYDSSKLASGVPARFSGSGSGTSYSLTISSMEAEDAATYYCQQWSSNPLTFGAGTKLELKR
B3: chimeric SC16.34 (murine SC16.34 variable regions, human IgG1/kappa constant regions) (antibody, V domains shown)
VH: QIQLVQSGPELKRPGETVKISCKASGYTFTNYGMNWVKQAPGKGLKWMGWINTYTGDPTYADDFKGRFAFSLETSASTAYLQINNLKNEDTATYFCARIGGNSPSDYWGQGTSLTVSS
VL: SIVMTQTPKFLLVSAGDRVTITCKASQSVSNDVAWYQQKPGQSPKLLIYYASNRYSGVPDRFTGSGYGTDFTFTISTVQAEDLAVYFCQQDYSSPWTFGGGTKLEIKR
B4: chimeric SC16.56 (murine SC16.56 variable regions, human IgG1/kappa constant regions) (antibody, V domains shown)
VH: B3 VH with R13K, G49A, D57E, Y80S, N84I, G101D, N102S, S113T
VL: B3 VL with A34V, S56T, T63A, T72S, S93T, K107R
B5: hSC16.13 (antibody, human IgG1, kappa, V domains shown)
VH: QITLKESGPTLVKPTQTLTLTCTFSGFSLSTSGMGVGWIRQPPGKALEWLAHIWWDDVKRYSPSLKSRLTITKDTSKNQVVLTMTNMDPVDTATYYCARIVSFDNDVVSAMDYWGQGTLVTVSS
VL: DIQMTQSPSSLSASVGDRVTITCSASSSVSYMYWYQQKPGKAPKLLIYLTSNLASGVPSRFSGSGSGTDFTLTISSLQPEDFATYYCQQWRSNPFTFGQGTKLEIKR
B6: hSC16.15 (antibody, human IgG1, kappa, V domains shown)
VH: QVQLVQSGAEVKKPGASVKVSCKASGYTFTRYWIHWIRQAPGQGLEWMGYINPTTVYTEFNQNFKDRVTMTRDTSTSTVYMELSSLRSEDTAVYYCARGGSNFFDYWGQGTTVTVSS
VL: AIQLTQSPSSLSASVGDRVTITCRASENIYYNLAWYQQKPGKAPKLLIYTANSLEDGVPSRFSGSGSGTDFTLTISSLQPEDFATYFCKQAYDVPPTFGGGTKLEIKR
B7: hSC16.25 (antibody, human IgG1, kappa, V domains shown)
VH: QITLKESGPTLVKPTQTLTLTCTFSGFSLSTSGMGVGWIRQPPGKALEWLTDIWWDDNKYYNPSLKSRLTITKDTSKNQVVLTMTNMDPVDTATYYCARRVNYYYDPYYAMDYWGQGTLVTVSS
VL: EIVLTQSPDFQSVTPKEKVTITCSASSSVSYMHWYQQKPDQSPKLLIKDSSKLASGVPSRFSGSGSGTDFTLTINSLEAEDAATYYCQQWSSNPLTFGQGTKLEIKR
B8: hSC16.34 (antibody, human IgG1, kappa, V domains shown)
VH: QVQLVQSGAEVKKPGASVKVSCKASGYTFTNYGMNWVRQAPGQRLEWMGWINTYTGDPTYADDFKGRVTITRDTSASTAYMELSSLRSEDTAVYYCARIGGNSPSDYWGQGTTVTVSS
VL: DIQMTQSPSSLSASVGDRVTITCKASQSVSNDVAWYQQKPGKVPKLLIYYASNRYSGVPSRFSGSGSGTDFTLTISSLQPEDVATYFCQQDYSSPWTFGGGTKVEIKR
B9: hSC16.56 (antibody, human IgG1, kappa, V domains shown)
VH: B8 VH with R44G, D57E, I70M, R72T, A76T, S84R, E89D, G101D, N102S, T113L
VL: EIVMTQSPATLSVSPGERATLSCKASQSVSNDVVWYQQKPGQAPRLLIYYASNRYTGIPARFSGSGSGTEFTLTISSLQSEDFAVYYCQQDYTSPWTFGQGTKLEIKR

Sequences of proteins named here, by UniProt entry; tags and fusion partners are left off. A change or cut given only in a name is not applied to a line headed by its entry.
UniProt Q9NYJ7: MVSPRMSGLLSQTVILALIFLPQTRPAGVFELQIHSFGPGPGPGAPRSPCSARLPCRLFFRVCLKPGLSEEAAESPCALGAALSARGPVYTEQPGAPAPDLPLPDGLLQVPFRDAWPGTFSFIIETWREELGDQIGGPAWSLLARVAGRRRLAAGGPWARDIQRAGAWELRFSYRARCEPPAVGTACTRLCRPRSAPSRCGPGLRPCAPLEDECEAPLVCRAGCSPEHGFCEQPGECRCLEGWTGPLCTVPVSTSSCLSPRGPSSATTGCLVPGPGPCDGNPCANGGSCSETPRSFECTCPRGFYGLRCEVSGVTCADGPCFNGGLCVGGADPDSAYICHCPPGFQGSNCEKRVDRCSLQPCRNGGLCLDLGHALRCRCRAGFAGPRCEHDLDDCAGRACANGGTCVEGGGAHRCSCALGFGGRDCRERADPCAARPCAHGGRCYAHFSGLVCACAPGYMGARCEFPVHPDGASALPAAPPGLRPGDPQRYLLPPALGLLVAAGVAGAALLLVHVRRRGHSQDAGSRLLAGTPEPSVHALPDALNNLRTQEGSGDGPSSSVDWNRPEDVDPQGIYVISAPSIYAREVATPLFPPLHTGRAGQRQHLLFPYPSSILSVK

target: human DLL3 (human) (UniProt Q9NYJ7); assay: surface plasmon resonance

binding, binds:
B1, B2, B3, B4, B5, B6, B7, B8, B9
